Reference: PMC11440251
Where two headings read alike, the source gives them in different places. No constants are given. Whether binding was seen depends on the method and setting. Binding seen in cells or lysates may run through a third protein. A yes stands for co-enrichment or nearness to the bait. Other partners may have been found. One block for each molecule: values may come before it.

Protein sequences, listed by entry. Tags and fused reporters are not part of them.
UniProt O75691: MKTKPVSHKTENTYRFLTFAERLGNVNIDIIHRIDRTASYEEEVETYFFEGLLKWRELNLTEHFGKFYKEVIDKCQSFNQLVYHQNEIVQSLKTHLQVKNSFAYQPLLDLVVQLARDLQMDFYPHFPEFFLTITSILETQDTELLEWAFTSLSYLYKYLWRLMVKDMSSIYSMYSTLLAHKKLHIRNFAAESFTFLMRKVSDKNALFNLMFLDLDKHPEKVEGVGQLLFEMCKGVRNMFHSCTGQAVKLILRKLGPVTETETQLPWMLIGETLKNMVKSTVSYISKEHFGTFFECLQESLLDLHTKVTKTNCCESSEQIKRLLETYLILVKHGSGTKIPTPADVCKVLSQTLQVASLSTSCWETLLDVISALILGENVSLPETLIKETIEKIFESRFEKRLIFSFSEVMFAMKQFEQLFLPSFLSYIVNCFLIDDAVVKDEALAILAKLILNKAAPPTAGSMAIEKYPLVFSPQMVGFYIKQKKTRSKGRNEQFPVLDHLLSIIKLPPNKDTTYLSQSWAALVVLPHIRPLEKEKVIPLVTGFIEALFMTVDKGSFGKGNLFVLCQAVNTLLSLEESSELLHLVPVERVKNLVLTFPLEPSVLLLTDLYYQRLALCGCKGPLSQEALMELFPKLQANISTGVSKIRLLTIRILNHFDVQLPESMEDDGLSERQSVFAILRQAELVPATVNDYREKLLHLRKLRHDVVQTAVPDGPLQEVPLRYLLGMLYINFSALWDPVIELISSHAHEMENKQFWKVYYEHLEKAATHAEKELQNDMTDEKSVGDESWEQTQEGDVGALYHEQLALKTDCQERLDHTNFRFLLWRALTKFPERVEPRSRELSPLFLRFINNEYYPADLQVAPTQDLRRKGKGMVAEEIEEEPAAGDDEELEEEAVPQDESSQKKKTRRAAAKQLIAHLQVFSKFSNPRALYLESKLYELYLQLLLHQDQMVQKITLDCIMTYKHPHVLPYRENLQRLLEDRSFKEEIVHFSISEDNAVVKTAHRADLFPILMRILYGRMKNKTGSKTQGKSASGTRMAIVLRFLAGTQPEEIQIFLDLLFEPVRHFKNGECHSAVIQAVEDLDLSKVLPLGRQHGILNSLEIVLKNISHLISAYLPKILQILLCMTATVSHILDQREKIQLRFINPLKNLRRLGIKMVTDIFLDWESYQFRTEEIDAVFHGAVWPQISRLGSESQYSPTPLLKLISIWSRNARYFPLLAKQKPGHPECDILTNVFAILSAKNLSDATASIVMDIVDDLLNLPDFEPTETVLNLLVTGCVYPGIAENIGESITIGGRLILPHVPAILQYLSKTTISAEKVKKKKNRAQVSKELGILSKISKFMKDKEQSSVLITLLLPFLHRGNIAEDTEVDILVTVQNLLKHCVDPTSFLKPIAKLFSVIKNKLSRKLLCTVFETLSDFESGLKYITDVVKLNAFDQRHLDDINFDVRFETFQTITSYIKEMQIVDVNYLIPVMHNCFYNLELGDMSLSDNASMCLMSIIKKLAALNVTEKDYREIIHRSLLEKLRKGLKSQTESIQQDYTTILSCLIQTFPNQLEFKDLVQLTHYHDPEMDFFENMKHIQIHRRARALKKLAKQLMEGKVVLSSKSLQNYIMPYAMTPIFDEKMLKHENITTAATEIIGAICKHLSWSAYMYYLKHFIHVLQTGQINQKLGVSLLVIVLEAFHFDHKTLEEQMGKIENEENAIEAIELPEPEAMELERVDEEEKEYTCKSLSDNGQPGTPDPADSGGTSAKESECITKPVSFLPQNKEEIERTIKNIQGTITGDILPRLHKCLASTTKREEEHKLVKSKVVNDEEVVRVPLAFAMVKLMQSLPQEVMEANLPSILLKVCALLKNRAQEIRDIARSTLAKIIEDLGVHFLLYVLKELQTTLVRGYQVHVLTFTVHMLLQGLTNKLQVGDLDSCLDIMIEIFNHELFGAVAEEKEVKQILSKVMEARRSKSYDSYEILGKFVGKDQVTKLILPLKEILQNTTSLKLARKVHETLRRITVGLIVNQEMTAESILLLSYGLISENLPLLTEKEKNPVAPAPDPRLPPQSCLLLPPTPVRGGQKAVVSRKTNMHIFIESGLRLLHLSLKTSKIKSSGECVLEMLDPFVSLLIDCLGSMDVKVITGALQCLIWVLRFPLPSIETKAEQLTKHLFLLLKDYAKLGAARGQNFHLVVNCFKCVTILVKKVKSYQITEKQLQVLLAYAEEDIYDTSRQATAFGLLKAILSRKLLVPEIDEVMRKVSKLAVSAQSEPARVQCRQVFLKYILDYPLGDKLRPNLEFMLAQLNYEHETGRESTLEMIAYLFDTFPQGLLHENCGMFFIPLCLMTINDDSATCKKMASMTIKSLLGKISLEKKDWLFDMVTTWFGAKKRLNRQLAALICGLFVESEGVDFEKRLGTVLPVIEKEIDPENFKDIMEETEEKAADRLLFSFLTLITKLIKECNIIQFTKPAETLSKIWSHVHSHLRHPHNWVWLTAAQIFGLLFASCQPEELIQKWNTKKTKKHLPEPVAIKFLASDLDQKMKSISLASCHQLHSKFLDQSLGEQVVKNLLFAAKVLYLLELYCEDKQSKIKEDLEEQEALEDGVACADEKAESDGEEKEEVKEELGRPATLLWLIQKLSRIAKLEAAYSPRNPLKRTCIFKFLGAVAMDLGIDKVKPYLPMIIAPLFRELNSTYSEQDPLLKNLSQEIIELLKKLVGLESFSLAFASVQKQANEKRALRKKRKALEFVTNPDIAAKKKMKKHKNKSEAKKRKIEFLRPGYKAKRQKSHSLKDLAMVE

Legend:
[1] = target: T1, RB1 (human (endogenous in MGC803)) (UniProt P06400); assay: affinity purification with mass spectrometry; RB1 antibody added to MGC803 P16-WT and P16-KO cell lysates for IP; rabbit IgG as negative control; precipitated proteins run briefly on SDS-PAGE, LC-MS
T1 sequence: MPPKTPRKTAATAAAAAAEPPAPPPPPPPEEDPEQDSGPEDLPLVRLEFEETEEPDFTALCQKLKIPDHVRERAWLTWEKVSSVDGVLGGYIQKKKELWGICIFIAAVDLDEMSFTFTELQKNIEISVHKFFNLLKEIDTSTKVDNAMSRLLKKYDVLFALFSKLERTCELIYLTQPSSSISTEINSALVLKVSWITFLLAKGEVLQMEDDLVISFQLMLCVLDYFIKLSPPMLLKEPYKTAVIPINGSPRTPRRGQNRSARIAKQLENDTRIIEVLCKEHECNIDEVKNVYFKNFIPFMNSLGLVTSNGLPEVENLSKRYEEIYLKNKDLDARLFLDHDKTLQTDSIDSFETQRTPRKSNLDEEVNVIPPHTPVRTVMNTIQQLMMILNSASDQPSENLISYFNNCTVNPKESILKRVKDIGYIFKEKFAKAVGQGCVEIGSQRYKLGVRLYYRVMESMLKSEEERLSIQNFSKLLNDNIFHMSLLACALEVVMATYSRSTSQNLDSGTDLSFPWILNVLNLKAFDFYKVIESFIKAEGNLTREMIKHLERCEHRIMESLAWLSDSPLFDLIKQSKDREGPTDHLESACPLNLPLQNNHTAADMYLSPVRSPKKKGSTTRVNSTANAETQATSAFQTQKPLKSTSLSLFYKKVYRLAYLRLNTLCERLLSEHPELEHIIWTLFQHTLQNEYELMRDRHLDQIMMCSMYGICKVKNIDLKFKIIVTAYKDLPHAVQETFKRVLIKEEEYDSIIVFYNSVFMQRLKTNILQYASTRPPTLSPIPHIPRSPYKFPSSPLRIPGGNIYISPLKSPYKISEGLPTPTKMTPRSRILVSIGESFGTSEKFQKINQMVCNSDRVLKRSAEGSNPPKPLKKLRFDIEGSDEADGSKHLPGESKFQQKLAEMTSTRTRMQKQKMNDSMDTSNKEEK

[2] = target: T1, RB1 (human (endogenous in MGC803)); assay: as above; remark: listed apart in the source

binding [1]: binds
Molecule: UTP20/1A6 (from UniProt O75691 1-2785)

binding [2]: binds
B1: UTP14A (enzyme, UniProt Q9BVJ6 1-771)
chain: MTANRLAESLLALSQQEELADLPKDYLLSESEDEGDNDGERKHQKLLEAISSLDGKNRRKLAERSEASLKVSEFNVSSEGSGEKLVLADLLEPVKTSSSLATVKKQLSRVKSKKTVELPLNKEEIERIHREVAFNKTAQVLSKWDPVVLKNRQAEQLVFPLEKEEPAIAPIEHVLSGWKARTPLEQEIFNLLHKNKQPVTDPLLTPVEKASLRAMSLEEAKMRRAELQRARALQSYYEAKARREKKIKSKKYHKVVKKGKAKKALKEFEQLRKVNPAAALEELEKIEKARMMERMSLKHQNSGKWAKSKAIMAKYDLEARQAMQEQLSKNKELTQKLQVASESEEEEGGTEDVEELLVPDVVNEVQMNADGPNPWMLRSCTSDTKEAATQEDPEQLPELEAHGVSESEGEERPVAEEEILLREFEERRSLRKRSELSQDAEPAGSQETKDSGSQEVLSELRVLSQKLKENHQSRKQKASSEGTIPQVQREEPAPEEEEPLLLQRPERVQTLEELEELGKEECFQNKELPRPVLEGQQSERTPNNRPDAPKEKKKKEQMIDLQNLLTTQSPSVKSLAVPTIEELEDEEERNHRQMIKEAFAGDDVIRDFLKEKREAVEASKPKDVDLTLPGWGEWGGVGLKPSAKKRRRFLIKAPEGPPRKDKNLPNVIINEKRNIHAAAHQVRVLPYPFTHHWQFERTIQTPIGSTWNTQRAFQKLTTPKVVTKPGHIINPIKAEDVGYRSSSRSDLSVIQRNPKRITTRHKKQLKKCSVD
